Data as given in PubChem BioAssay AID1259254 (NCATS, 2017).

Purpose: 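Genome-wide screen for genes that prevent DNA re-replication in cancer cells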 (primary screen)
Cells: human HCT116 colorectal cancer cells
Reagents: single siRNA against human genes
Duration: 3 days
Detection: 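Nuclei stained with Hoechst and imaged; cell-cycle phase assigned by DNA content; G2 share scaled per plate, non-targeting siRNA 0%, GMNN siRNA 100%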
Reading the numbers: G2 robust z-score and G2 cells, % of GMNN control: higher = more G2 cells, more excess DNA replication
Active means: 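An siRNA counts as active if its G2 robust z-score lies at least 5 MADs above the screen median; here such calls match roughly 38% of GMNN control or more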
Shown is one part, drawn at random, of about 59,000 deposited reagents. Over the whole deposit, about 1,550 (2.6%) were called active. 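G2 share is only a proxy for re-replication; each gene was hit by three separate siRNAs, and active genes were retested.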 The numbers tell different reagents against one gene apart. Not all columns of the deposit are shown. Reagent sequences are not shown. The record does not give: the amount of reagent.

no.	target gene	siRNA no.	G2 robust z-score	G2 cells, % of GMNN control	Call
1	RNF144B	1	0.0308	3.18	inactive
2	RNF144B	2	-0.318	0.732	inactive
3	RNF144B	3	-1.01	-4.11	inactive
4	LCA5L	1	0.692	7.83	inactive
5	LCA5L	2	-0.368	0.379	inactive
6	LCA5L	3	-0.373	0.342	inactive
7	CDK7	1	3.12	24.9	inactive
8	CDK7	2	-0.626	-1.44	inactive
9	CDK7	3	0.252	4.74	inactive
10	ATXN7L2	1	0.507	6.53	inactive
11	ATXN7L2	2	-0.917	-3.48	inactive
12	ATXN7L2	3	0.011	3.04	inactive
13	PSG4	1	1.04	10.3	inactive
14	PSG4	2	3.84	30	inactive
15	PSG4	3	-0.436	-0.102	inactive
16	ZZEF1	1	-1.06	-4.5	inactive
17	ZZEF1	2	1.21	11.5	inactive
18	ZZEF1	3	-0.735	-2.21	inactive
19	HERC5	1	-0.529	-0.753	inactive
20	HERC5	2	2.49	20.5	inactive
21	HERC5	3	-0.871	-3.16	inactive
22	PAWR	1	0.794	8.55	inactive
23	PAWR	2	-1.15	-5.09	inactive
24	PAWR	3	1.61	14.3	inactive
25	ZBTB5	1	-0.965	-3.82	inactive
26	ZBTB5	2	-1.03	-4.27	inactive
27	ZBTB5	3	-0.608	-1.31	inactive
28	CPXM1	1	0.154	4.05	inactive
29	CPXM1	2	-0.2	1.56	inactive
30	CPXM1	3	-0.791	-2.6	inactive
31	SGSH	1	-1.37	-6.68	inactive
32	SGSH	2	-0.974	-3.89	inactive
33	SGSH	3	-1.02	-4.19	inactive
34	LINC02226	1	0.959	9.71	inactive
35	LINC02226	2	0.599	7.18	inactive
36	LINC02226	3	-0.659	-1.67	inactive
37	ABHD4	1	-0.597	-1.23	inactive
38	ABHD4	2	0.711	7.97	inactive
39	ABHD4	3	1.27	11.9	inactive
40	RPL32P16	1	-0.942	-3.66	inactive
41	RPL32P16	2	-0.743	-2.26	inactive
42	RPL32P16	3	3.29	26.1	inactive
43	CYP27A1	1	-0.563	-0.994	inactive
44	CYP27A1	2	1.89	16.3	inactive
45	CYP27A1	3	2.29	19.1	inactive
46	EHD3	1	-1.26	-5.9	inactive
47	EHD3	2	1.39	12.8	inactive
48	EHD3	3	-0.151	1.9	inactive
49	CDC16	1	3.73	29.2	inactive
50	CDC16	2	3.98	31	inactive
51	CDC16	3	1.41	12.9	inactive
52	C6orf15	1	-0.635	-1.5	inactive
53	C6orf15	2	-0.149	1.92	inactive
54	C6orf15	3	-1.01	-4.15	inactive
55	SLC9A7	1	-1.27	-5.95	inactive
56	SLC9A7	2	-1.52	-7.74	inactive
57	SLC9A7	3	-0.606	-1.3	inactive
58	PLEKHN1	1	-1.39	-6.85	inactive
59	PLEKHN1	2	0.81	8.66	inactive
60	PLEKHN1	3	0.139	3.94	inactive
61	PLEKHO1	1	0.738	8.16	inactive
62	PLEKHO1	2	-0.978	-3.91	inactive
63	PLEKHO1	3	1.74	15.2	inactive
64	PGAP2	1	-0.416	0.039	inactive
65	PGAP2	2	-1.4	-6.88	inactive
66	PGAP2	3	2.51	20.7	inactive
67	ABCA5	1	-1.18	-5.31	inactive
68	ABCA5	2	-0.673	-1.77	inactive
69	ABCA5	3	-1.26	-5.92	inactive

Copied from above for reference:
no.	target gene	siRNA no.	G2 robust z-score	G2 cells, % of GMNN control	Call
38	ABHD4	2	0.711	7.97	inactive
39	ABHD4	3	1.27	11.9	inactive
40	RPL32P16	1	-0.942	-3.66	inactive
41	RPL32P16	2	-0.743	-2.26	inactive
